# Reference: PubChem BioAssay AID1487 (National Center for Advancing Translational Sciences (NCATS), 2009)
# Some of the results follow. Further columns of the screen follow, without active or inactive calls. The list favours compounds with an active or inconclusive main result. Words in brackets tell the shape of the fitted curve; partial curves, single points and poor fits give uncertain potencies.
# Test: qHTS Assay for Modulators of Lamin A Splicing
# Conditions: HeLa LMNA splicing GFP/RFP minigene ratio, 48 h
# In short: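 S3 HeLa cells stably expressing lamin A-EGFP splicing minigene plus DsRed2, 600 cells/well, 48 h compound exposure at 37C. Laser-scanning cytometry; analysed as GFP (500-530 nm)/RFP (575-640 nm) total intensity ratio; 0.5% DMSO vehicle.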
# [1] = measured here: RFP viability control channel
# [2] = measured here: GFP splicing reporter channel
smiles,measurement,setting,value
CCn1c(=O)c(=O)[nH]c2cc(C(=O)NC3CCCc4ccccc43)ccc21 (configuration not stated),AC50,[1],"28.2 µM [rising, single point]"
Clc1cccc(OCCN2CCNCC2)c1,AC50,[2],"12.6 µM [falling, single point]"
NC(=O)c1c(NC(=O)c2cccs2)sc2c1CCCCCC2,AC50,[1],"25.1 µM [rising, single point]"
Cc1nnc(-c2ccc(Oc3ccc(Cl)cc3)c([N+](=O)[O-])c2)o1,AC50,[2],"12.6 µM [rising, partial curve, poor fit]"
same,AC50,[1],"35.5 µM [rising, single point]"
O=C(C[n+]1cc2ccccc2c2ccccc21)c1ccccc1,AC50,[1],"20 µM [rising, single point]"
N#Cc1nccnc1S(=O)(=O)c1cccs1,AC50,[2],"0.891 µM [falling, partial curve, poor fit]"
same,AC50,[1],"35.5 µM [falling, single point]"
CCCn1c(SCC(=O)N2CCCC(C)C2)nnc1-c1ccccn1 (configuration not stated),AC50,[1],"11.2 µM [falling, partial curve, poor fit]"
Cc1cccc(CCNC(=O)CCc2c(C)nc3ncnn3c2C)c1,AC50,[2],"3.55 µM [falling, single point]"
same,AC50,[1],"5.01 µM [falling, partial curve, poor fit]"
COc1ccc(NC(=O)NC23CC4(C)CC(C)(CC(C)(C4)C2)C3)cc1OC,AC50,[1],"7.08 µM [rising, partial curve, poor fit]"
CCOc1cc(C(=O)NC)cc(Br)c1OC,AC50,[1],"6.31 µM [rising, single point]"
O=C(N/N=C/C=C/c1ccccc1)c1cc2c(ccc3ccccc32)o1,AC50,[1],"11.2 µM [falling, partial curve, poor fit]"
O=C(c1ccco1)N1CCN(CC(O)COc2ccc3oc4ccccc4c3c2)CC1 (configuration not stated),AC50,[2],"1.26 µM [rising, partial curve, poor fit]"
same,AC50,[1],"25.1 µM [rising, single point]"
CCn1c2ccccc2c2cc(NC(=O)CSc3nnc(-c4cccc(C)c4)o3)ccc21,AC50,[1],"10 µM [rising, partial curve]"
O=C(NCC1(c2ccccc2)CCCC1)c1ccc(Br)cc1,AC50,[2],"35.5 µM [rising, single point]"
same,AC50,[1],"28.2 µM [rising, single point]"
COc1ccc(-n2nnnc2SCC(=O)Nc2ccc3c(c2)OCCO3)c(OC)c1,AC50,[2],"5.62 µM [rising, partial curve]"
same,AC50,[1],"14.1 µM [rising, partial curve]"
COc1ccccc1NS(=O)(=O)c1cccc(NC(=O)Cc2cccs2)c1,AC50,[1],"35.5 µM [rising, partial curve, poor fit]"
Cc1nn(Cc2ccc(Cl)cc2Cl)c(C)c1NC(=O)c1sc2ccccc2c1Cl,AC50,[1],"35.5 µM [falling, single point]"
N=C(c1ccc([N+](=O)[O-])cc1)N1CCCCCC1,AC50,[1],"1 µM [falling, full curve]"
COc1ccc2[nH]cc(CCNc3nc(-c4c(C)noc4C)nc4ccccc34)c2c1,AC50,[2],"22.4 µM [falling, single point]"
same,AC50,[1],"25.1 µM [falling, single point]"
O=c1c(C/C=C/c2ccccc2)c(O)ccn1Cc1ccc(Cl)cc1Cl,AC50,[2],"3.55 µM [rising, full curve, poor fit]"
same,AC50,[1],"12.6 µM [rising, partial curve]"
CCN(CC)S(=O)(=O)c1ccc(/C=C/C(=O)Nc2cccc(F)c2)cc1,AC50,[2],"4.47 µM [rising, partial curve]"
same,AC50,[1],"8.91 µM [rising, partial curve]"
O=C(NC1CCCCC1)N(Cc1ccc(F)cc1)Cc1nc2ccccc2c(=O)[nH]1,AC50,[1],"0.1 µM [rising, full curve, poor fit]"
CC(C)(C)n1nnnc1C(c1cccnc1)N1CCN(c2cccc(C(F)(F)F)c2)CC1 (configuration not stated),AC50,[1],"35.5 µM [rising, single point]"
Fc1ccccc1C1c2[nH]c3ccccc3c2CCN1Cc1ccoc1 (configuration not stated),AC50,[1],"35.5 µM [rising, single point]"
O=C(/C=C/c1ccc(Br)cc1)c1ccc(NC2=NCCCS2)cc1,AC50,[2],"5.01 µM [rising, single point]"
same,AC50,[1],"5.62 µM [rising, single point]"
N/C(=N\OS(=O)(=O)c1ccc2ccccc2c1)c1cccnc1,AC50,[2],"25.1 µM [falling, single point]"
same,AC50,[1],"35.5 µM [falling, partial curve, poor fit]"
O=C1c2ccccc2-c2onc3ccc(NCc4ccco4)c1c23,AC50,[1],"12.6 µM [rising, single point]"
CCCCn1cc(S(=O)(=O)c2ccc(CC)cc2)c(=O)c2cc(F)c(N3CCOCC3)cc21,AC50,[2],"10 µM [falling, partial curve]"
same,AC50,[1],"3.98 µM [falling, partial curve, poor fit]"
COc1cccc(N2CCN(C(=O)c3ccc4nc(N5CCCCC5)sc4c3)CC2)c1,AC50,[2],"11.2 µM [rising, single point]"
COc1ccccc1OCC(=O)OCC(=O)NCCN1C(=O)CSC1=O,AC50,[2],"35.5 µM [falling, single point]"
O=C(CNC1CCCC1)Nc1ccc(N2CCCCCC2)cc1,AC50,[2],"0.00316 µM [falling, full curve, poor fit]"
same,AC50,[1],"0.0282 µM [falling, full curve]"
CC(Nc1nc(N2CCN(CCO)CC2)nc2ccccc12)c1ccccc1 (configuration not stated),AC50,[1],"0.158 µM [rising, full curve, poor fit]"
CCOc1ccccc1N1CC(O)=C(c2nc3ccccc3s2)C1=N,AC50,[1],"5.62 µM [rising, single point]"
COc1ccc(CCNC(=O)CC2SC(=NCc3ccccc3OC)NC2=O)cc1 (configuration not stated),AC50,[2],"5.62 µM [rising, partial curve]"
same,AC50,[1],"0.1 µM [rising, full curve, poor fit]"
CN(C)c1ccc(/C=C/c2cc[n+](C)cc2)cc1,AC50,[2],"35.5 µM [falling, single point]"
same,AC50,[1],"3.16 µM [rising, single point]"
Cc1ncsc1C(=O)N1N=C2/C(=C/c3ccccc3)CCCC2C1c1ccccc1 (configuration not stated),AC50,[2],"35.5 µM [falling, single point]"
same,AC50,[1],"35.5 µM [falling, single point]"
Cc1ccc(OCCOCCn2cnc3ccccc3c2=O)c([N+](=O)[O-])c1,AC50,[1],"17.8 µM [rising, single point]"
CC1CCCCC1NC(=O)CN1CCN(Cc2ccccc2Cl)C1=O (configuration not stated),AC50,[2],"15.8 µM [rising, single point]"
same,AC50,[1],"35.5 µM [rising, single point]"
Cc1cc(C)cc(NS(=O)(=O)c2ccc(NC(=S)NC(=O)c3cccs3)cc2)c1,AC50,[2],"3.98 µM [rising, partial curve, poor fit]"
same,AC50,[1],"12.6 µM [rising, partial curve]"
c1csc(C(c2nnnn2C2CCCC2)N2CCCC3(CCCCC3)C2)c1 (configuration not stated),AC50,[1],"31.6 µM [rising, single point]"
CCOc1ccc(NCc2nnc(SCc3ccc(Cl)cc3)n2-c2ccccc2)cc1,AC50,[1],"22.4 µM [rising, single point]"
CCOC(=O)/C(C#N)=C/Nc1cc(C(C)(C)C)sc1C(C)=O,AC50,[1],"5.62 µM [rising, single point]"
CCCCN1CCC(n2c(=O)[nH]c3ccccc32)CC1,AC50,[1],"0.000794 µM [falling, full curve, poor fit]"
C=CCNC(=O)/C(C#N)=C/c1c(N(Cc2ccccc2)Cc2ccccc2)nc2ccccn2c1=O,AC50,[2],"31.6 µM [rising, single point]"
same,AC50,[1],"31.6 µM [rising, single point]"
CCc1c(C)sc2c1CCN(C(=O)Nc1cc(Cl)c(OC)cc1OC)C2c1ccccc1 (configuration not stated),AC50,[1],"0.0398 µM [rising, full curve, poor fit]"
COc1cccc2c1Oc1ncccc1N(C(=O)CCC(=O)NC(C)C)C2,AC50,[2],"0.0355 µM [falling, full curve, poor fit]"
same,AC50,[1],"4.47 µM [falling, full curve, poor fit]"
CCCCn1c(O)c(N=Nc2ccccn2)c2ccccc21,AC50,[1],"11.2 µM [rising, partial curve, poor fit]"
CC(C)NC(=O)c1cc2cc([N+](=O)[O-])ccc2s1,AC50,[2],"12.6 µM [rising, partial curve]"
same,AC50,[1],"14.1 µM [rising, partial curve]"
COc1ccc(C2CC3(CC(C)(C)NC(=S)N3)Oc3cc(O)cc(C)c32)cc1 (configuration not stated),AC50,[1],"20 µM [rising, partial curve, poor fit]"
CCCS(=O)(=O)N1CCC(C(=O)c2cccc(C(F)(F)F)c2)CC1,AC50,[1],"35.5 µM [rising, single point]"
CCC(=O)Nc1ccccc1C(=O)OCC(=O)c1ccc2ccccc2c1,AC50,[1],"35.5 µM [rising, single point]"
O=C(CN1CCN(c2ccc(F)cc2)CC1)Nc1cccc(C(F)(F)F)c1,AC50,[2],"14.1 µM [rising, single point]"
same,AC50,[1],"22.4 µM [rising, single point]"
COc1ccc(N(C)C(=S)Oc2ccc(C(=O)Nc3ccccc3)cc2)cc1,AC50,[1],"31.6 µM [rising, single point]"
CN(C)S(=O)(=O)c1cccc(N=C2NN=C(c3ccccc3)CS2)c1,AC50,[1],"10 µM [rising, partial curve]"
COc1ccc(-c2csc(CCn3nc(C)cc3C)n2)cc1,AC50,[1],"35.5 µM [rising, single point]"

# Given bar-delimited: part of the list above
smiles | measurement | setting | value
O=C(C[n+]1cc2ccccc2c2ccccc21)c1ccccc1 | AC50 | [1] | 20 µM [rising, single point]
O=C(c1ccco1)N1CCN(CC(O)COc2ccc3oc4ccccc4c3c2)CC1 (configuration not stated) | AC50 | [2] | 1.26 µM [rising, partial curve, poor fit]
O=C(NCC1(c2ccccc2)CCCC1)c1ccc(Br)cc1 | AC50 | [1] | 28.2 µM [rising, single point]
Cc1nn(Cc2ccc(Cl)cc2Cl)c(C)c1NC(=O)c1sc2ccccc2c1Cl | AC50 | [1] | 35.5 µM [falling, single point]
COc1ccc2[nH]cc(CCNc3nc(-c4c(C)noc4C)nc4ccccc34)c2c1 | AC50 | [2] | 22.4 µM [falling, single point]
O=c1c(C/C=C/c2ccccc2)c(O)ccn1Cc1ccc(Cl)cc1Cl | AC50 | [1] | 12.6 µM [rising, partial curve]
O=C1c2ccccc2-c2onc3ccc(NCc4ccco4)c1c23 | AC50 | [1] | 12.6 µM [rising, single point]
COc1cccc(N2CCN(C(=O)c3ccc4nc(N5CCCCC5)sc4c3)CC2)c1 | AC50 | [2] | 11.2 µM [rising, single point]
O=C(CNC1CCCC1)Nc1ccc(N2CCCCCC2)cc1 | AC50 | [1] | 0.0282 µM [falling, full curve]
CCOc1ccccc1N1CC(O)=C(c2nc3ccccc3s2)C1=N | AC50 | [1] | 5.62 µM [rising, single point]
CN(C)c1ccc(/C=C/c2cc[n+](C)cc2)cc1 | AC50 | [2] | 35.5 µM [falling, single point]
CCCS(=O)(=O)N1CCC(C(=O)c2cccc(C(F)(F)F)c2)CC1 | AC50 | [1] | 35.5 µM [rising, single point]
O=C(CN1CCN(c2ccc(F)cc2)CC1)Nc1cccc(C(F)(F)F)c1 | AC50 | [2] | 14.1 µM [rising, single point]
